PubChem BioAssay AID602196 | INSERM, 2012
Purpose: 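Knock-downs that protect lung cancer cells from cisplatin or sensitise them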. Cell system: human A549 lung cancer cells. Reagents: siRNA pair against human genes. Duration: 48 h transfection before cisplatin; time from cisplatin to read-out not stated. Conditions: cisplatin at a dose killing half of control-siRNA cells; exact dose and duration not given. Read-out: 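Shift in cisplatin death relative to control siRNA, from -50 (all cells die) to +50 (no cells die); siRNAs harmful on their own scored 0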. Direction: two-siRNA summed score (-2 to +2): higher = both siRNAs protect from cisplatin killing; -2 means both sensitise. Active means: 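Each siRNA scores 0 if harmful alone by LDH or WST-1, otherwise +1 if it reduces and -1 if it increases cisplatin killing; a gene is active when both siRNAs agree (sum +2 or -2)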. Calls: active = both siRNAs shift cisplatin killing the same way; inactive = no consistent shift, or siRNA harmful alone.
In all, the deposit lists about 23,000 reagents; below is an unselected part. Over the whole deposit, 455 (2%) got an active call. 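Active includes both protection and sensitisation; some change values fall well beyond the stated -50 to +50 range.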 Not all columns of the deposit are shown. Not stated in the record: the amount of reagent.

Gene	two-siRNA summed score (-2 to +2)	outcome
CAPN7	-1	inactive
NCAPG2	0	inactive
SERPINA9	0	inactive
M1AP	0	inactive
TRIM14	1	inactive
FOXP3	0	inactive
TBC1D8	1	inactive
MVK	0	inactive
H6PD	0	inactive
PLEKHG5	1	inactive
ZFP36L2	0	inactive
CEACAM8	0	inactive
IL17RD	-1	inactive
LOC388480	0	inactive
UBAP2	1	inactive
GOLPH3L	0	inactive
ACVR2B	0	inactive
TTN	-1	inactive
FRMD1	-1	inactive
AHSA2P	0	inactive
POGLUT3	0	inactive
DNAH6	0	inactive
LOC441534	-1	inactive
MUC15	0	inactive
CHID1	0	inactive
KLHL31	0	inactive
SLC8B1	0	inactive
LOC440785	0	inactive
SCIN	0	inactive
DNAJC13	0	inactive
LOC390378	0	inactive
LOC440496	0	inactive
LOC442426	0	inactive
NOA1	1	inactive
TRIP12	0	inactive
FGFR2	0	inactive
LOC401460	1	inactive
ADGRG5	0	inactive
C19orf84	0	inactive
GPATCH8	0	inactive
ZNF524	1	inactive
LOC440042	1	inactive
GOLGA3	0	inactive
LOC442747	1	inactive
LOC441630	1	inactive
RPL5	0	inactive
FAM133A	0	inactive
SERPINI2	0	inactive
LOC340075	0	inactive
PRKAG2	0	inactive
CHRNA10	0	inactive
C4B	0	inactive
PC	0	inactive
DRC9	0	inactive
LIMA1	0	inactive
CDK10	0	inactive
LOC339782	0	inactive
RPRML	0	inactive
AGFG2	0	inactive
MFN2	0	inactive
NUP37	0	inactive
BANK1	0	inactive
FBXO25	1	inactive
IDH3B	0	inactive
INTS14	0	inactive
ZNF358	0	inactive
MAGEB10	0	inactive
NBPF15	0	inactive
HSPBP1	1	inactive
TSKU	0	inactive
LOC441773	0	inactive
PHF21A	0	inactive
XXYLT1	-1	inactive

6 entries from above in another layout:
INTS14
- two-siRNA summed score (-2 to +2): 0
- outcome: inactive

ZNF358
- two-siRNA summed score (-2 to +2): 0
- outcome: inactive

MAGEB10
- two-siRNA summed score (-2 to +2): 0
- outcome: inactive

NBPF15
- two-siRNA summed score (-2 to +2): 0
- outcome: inactive

HSPBP1
- two-siRNA summed score (-2 to +2): 1
- outcome: inactive

TSKU
- two-siRNA summed score (-2 to +2): 0
- outcome: inactive
